Test results as given in patent publication US20050196797A1.
These are yes or no findings as the source states them, for the method shown. For some assays here: In cells and extracts the contact can be indirect. Some entries that bind do so weakly or less than the wild type.

Amino acid sequences for entries named in this document (tags omitted).
UniProt Q96Q15: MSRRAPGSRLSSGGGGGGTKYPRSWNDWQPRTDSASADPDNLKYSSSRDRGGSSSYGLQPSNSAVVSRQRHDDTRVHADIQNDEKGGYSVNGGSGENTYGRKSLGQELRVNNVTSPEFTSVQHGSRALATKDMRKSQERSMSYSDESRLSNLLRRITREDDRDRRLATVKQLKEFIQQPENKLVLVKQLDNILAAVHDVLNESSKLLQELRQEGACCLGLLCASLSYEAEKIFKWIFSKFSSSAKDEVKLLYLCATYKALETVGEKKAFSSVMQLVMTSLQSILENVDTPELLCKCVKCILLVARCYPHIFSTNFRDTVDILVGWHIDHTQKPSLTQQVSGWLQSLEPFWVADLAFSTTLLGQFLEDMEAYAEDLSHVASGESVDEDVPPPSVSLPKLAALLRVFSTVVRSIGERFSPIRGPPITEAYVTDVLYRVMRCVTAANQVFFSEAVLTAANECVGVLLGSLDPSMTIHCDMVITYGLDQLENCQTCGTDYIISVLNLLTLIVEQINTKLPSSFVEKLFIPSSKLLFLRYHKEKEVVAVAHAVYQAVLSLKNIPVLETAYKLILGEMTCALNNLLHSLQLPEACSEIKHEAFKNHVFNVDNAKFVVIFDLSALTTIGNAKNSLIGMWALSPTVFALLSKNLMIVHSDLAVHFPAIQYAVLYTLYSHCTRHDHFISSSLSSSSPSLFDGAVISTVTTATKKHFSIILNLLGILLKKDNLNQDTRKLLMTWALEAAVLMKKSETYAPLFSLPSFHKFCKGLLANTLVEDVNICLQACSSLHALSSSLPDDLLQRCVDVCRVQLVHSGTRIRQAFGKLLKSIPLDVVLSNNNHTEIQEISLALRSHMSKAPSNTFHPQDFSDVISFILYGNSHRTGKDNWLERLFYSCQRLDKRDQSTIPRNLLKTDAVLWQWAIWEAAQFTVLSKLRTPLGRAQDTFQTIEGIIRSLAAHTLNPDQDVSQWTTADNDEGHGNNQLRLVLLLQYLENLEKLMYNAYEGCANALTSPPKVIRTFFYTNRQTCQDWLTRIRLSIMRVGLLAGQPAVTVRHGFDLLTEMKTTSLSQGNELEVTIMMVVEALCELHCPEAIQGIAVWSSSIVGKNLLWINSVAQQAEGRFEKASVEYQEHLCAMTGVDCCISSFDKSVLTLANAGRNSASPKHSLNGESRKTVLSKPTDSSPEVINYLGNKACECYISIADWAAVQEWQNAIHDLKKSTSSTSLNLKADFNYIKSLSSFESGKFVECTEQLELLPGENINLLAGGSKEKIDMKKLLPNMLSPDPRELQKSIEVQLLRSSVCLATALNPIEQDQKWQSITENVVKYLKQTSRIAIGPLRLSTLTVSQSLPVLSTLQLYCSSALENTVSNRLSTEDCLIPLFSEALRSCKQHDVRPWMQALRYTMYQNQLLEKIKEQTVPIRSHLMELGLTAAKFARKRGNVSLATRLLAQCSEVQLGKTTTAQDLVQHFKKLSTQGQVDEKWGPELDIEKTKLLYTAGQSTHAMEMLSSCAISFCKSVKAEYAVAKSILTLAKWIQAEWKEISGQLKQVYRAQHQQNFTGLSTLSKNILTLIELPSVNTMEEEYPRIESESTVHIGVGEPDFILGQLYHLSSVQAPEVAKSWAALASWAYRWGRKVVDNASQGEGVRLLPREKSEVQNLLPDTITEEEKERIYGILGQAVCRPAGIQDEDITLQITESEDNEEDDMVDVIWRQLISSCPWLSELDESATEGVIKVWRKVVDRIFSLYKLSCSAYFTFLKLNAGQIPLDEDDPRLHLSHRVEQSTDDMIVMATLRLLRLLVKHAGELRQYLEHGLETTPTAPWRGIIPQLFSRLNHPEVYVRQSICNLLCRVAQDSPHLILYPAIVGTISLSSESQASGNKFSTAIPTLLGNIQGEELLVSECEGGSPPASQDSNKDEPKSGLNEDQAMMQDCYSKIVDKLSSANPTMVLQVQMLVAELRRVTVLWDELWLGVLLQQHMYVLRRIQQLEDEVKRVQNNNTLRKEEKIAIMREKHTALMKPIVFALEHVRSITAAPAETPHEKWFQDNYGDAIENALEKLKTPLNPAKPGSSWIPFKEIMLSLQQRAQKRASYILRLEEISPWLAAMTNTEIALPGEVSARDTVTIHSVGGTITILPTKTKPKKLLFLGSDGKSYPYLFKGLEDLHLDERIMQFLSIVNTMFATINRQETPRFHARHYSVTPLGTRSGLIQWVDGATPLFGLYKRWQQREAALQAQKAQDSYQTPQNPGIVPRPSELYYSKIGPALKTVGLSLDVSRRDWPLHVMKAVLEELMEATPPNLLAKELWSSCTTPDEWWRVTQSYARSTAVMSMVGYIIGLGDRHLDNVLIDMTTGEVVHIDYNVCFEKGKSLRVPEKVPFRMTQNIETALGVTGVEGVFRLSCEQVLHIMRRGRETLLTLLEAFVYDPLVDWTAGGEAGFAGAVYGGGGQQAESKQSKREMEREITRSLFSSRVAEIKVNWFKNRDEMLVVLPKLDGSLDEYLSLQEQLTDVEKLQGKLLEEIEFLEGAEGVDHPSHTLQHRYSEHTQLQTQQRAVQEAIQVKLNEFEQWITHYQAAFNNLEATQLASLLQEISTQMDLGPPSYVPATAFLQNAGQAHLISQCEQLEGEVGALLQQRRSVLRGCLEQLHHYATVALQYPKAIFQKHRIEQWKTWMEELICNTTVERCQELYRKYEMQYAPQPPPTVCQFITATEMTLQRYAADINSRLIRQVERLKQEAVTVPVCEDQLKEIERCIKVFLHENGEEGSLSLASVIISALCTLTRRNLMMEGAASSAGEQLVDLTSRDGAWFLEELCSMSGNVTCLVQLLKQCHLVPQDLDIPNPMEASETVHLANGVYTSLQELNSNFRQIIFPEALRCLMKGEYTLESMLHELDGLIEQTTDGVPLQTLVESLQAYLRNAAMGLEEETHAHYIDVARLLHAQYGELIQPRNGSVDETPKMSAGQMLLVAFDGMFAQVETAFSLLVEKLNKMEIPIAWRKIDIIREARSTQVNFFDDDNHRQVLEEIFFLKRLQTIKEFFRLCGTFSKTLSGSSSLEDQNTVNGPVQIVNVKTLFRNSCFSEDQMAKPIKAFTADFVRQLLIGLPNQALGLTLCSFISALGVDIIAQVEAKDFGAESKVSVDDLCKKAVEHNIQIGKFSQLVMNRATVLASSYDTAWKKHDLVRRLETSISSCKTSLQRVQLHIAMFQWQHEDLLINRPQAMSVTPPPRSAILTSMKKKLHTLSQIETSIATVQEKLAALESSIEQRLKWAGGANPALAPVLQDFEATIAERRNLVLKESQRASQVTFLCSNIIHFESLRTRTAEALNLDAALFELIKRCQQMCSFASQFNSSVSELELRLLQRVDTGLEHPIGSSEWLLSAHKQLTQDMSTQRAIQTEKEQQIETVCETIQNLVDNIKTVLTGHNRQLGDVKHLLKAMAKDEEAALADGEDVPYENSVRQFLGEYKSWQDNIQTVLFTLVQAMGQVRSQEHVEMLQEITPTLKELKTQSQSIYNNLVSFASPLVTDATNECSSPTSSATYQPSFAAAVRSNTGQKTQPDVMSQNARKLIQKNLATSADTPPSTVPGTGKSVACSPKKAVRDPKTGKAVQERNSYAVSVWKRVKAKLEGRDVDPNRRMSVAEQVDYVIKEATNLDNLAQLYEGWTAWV

Tests used:
[1] = target: human SMG-1 (hSMG-1) (human) (UniProt Q96Q15); test: co-immunoprecipitation from HeLa cell extract with anti-hSMG-1 IgG (antibody N), SDS-PAGE, silver staining
[2] = target: human SMG-1 (hSMG-1) (human) (UniProt Q96Q15); test: co-immunoprecipitation from HeLa cell extract with anti-hSMG-1 antiserum C, detected as a phosphorylated band
[3] = target: human SMG-1 (hSMG-1) (human) (UniProt Q96Q15); test: co-immunoprecipitation from HeLa cell extract with anti-hSMG-1 antiserum L, detected as a phosphorylated band
[4] = target: human SMG-1 (hSMG-1) (human) (UniProt Q96Q15); test: anion exchange fractionation of HeLa extract, immunoprecipitation of each fraction with antiserum C, phosphorylation, autoradiography
[5] = target: human SMG-1 (hSMG-1) (human) (UniProt Q96Q15); test: co-immunoprecipitation from HeLa cell extract with anti-hSMG-1 antiserum N, L or C, Western blotting with anti AK026858.1-translated-product antibody

Measured: binding

B1: SMGBP1 (SMG Binding Protein 1) (protein)
chain: MAGPVSLRDLLMGASAWMGSESPGGSPTEGGGSAAGGPEPPWREDEICVVGIFGKTALRLNSEKFSLVNTVCDRQVFPLFRHQDPGDPGPGIRTEAGAVGEAGGAEDPGAAAGGSVRGSGAVAEGNRTEAGSQDYSLLQAYYSQESKVLYLLLTSICDNSQLLRACRALQSGEAGGGLSLPHAEAHEFWKHQEKLQCLSLLYLFSVCHILLLVHPTCSFDITYDRVFRALDGLRQKVLPLLKTAIKDCPVGKDWKLNCRPCPPRLLFLFQLNGALKVVPPRNQDPAHPDKPKKHSPKRRLQHALEDQIYRIFRKSRVLTNQSINCLFTVPANQAFVYIVPGSQEEDPVGMLLDQLRSHCTVKDPESLLVPAPLSGPRRYQVMRQHSRQQLSFHIDSSSSSSSGQLVDFTLWEFLWQHVELVLSKKGFDDSVGRNPQPSHFELPTYQKWISAASKLYEVAIDGKEEDLGSPTGELTSKILSSIKVLEGFLDIDTKFSENRCQKALPMAHSAYQSNLPHNYTMTVHKNQLAQALRVYSQHARGPAFHKYAMQLHEDCYKFWSNGHQLCEERSLTDQHCVHKFHSLPKSGEKPEADRNPPVLYHNSRARSTGACNCGRKQAPRDDPFDIKAANYDFYQLLEEKCCGKLDHINFPVFEPSTPDPAPAKNESSPAPPDSDADKLKEKEPQTQGESTSLSLALSLGQSTDSLGTYPADPQAGGDNPEVHGQVEVKTEKRPNFVDRQASTVEYLPGMLHSNCPKGLLPKFSSWSLVKLGPAKSYNFHTGLDQQGFIPGTNYLMPWDIVIRTRAEDEGDLDTNSWPAPNKAIPGKRSAVVMGRGRRRDDIARAFVGFEYEDSRGRRFMCSGPDKVMKVMGSGPKESALKALNSDMPLYILSSSQGRGLKPHYAQLMRLFVVVPDAPLQIILMPQVQPGPPPCPVFYPEKQEITLPPDGLWVLRFPYAYVTERGPCFPPKENVQLMSYKVLRGVLKAVTQ
binds: all assays above
